These results are taken from US20100227935A1, “CLASS OF TERPENE-DERIVED COMPOUNDS HAVING AN ANTIBIOTIC ACTIVITY, COMPOSITIONS CONTAINING THE SAME AND USES THEREOF” (Centre National De La Recherche Scientifique, priority 2006, published 2010).

Holding throughout (assay type): cell-based
In one assay the test system is Staphylococcus aureus H4. The experiment in a line: MIC / antibiotic susceptibility.
In a further assay the test system is Staphylococcus aureus H1. The assay is described as follows: MIC / antibiotic susceptibility.
The test system of assay [1] is Staphylococcus aureus H16.
In another assay the test system is Staphylococcus aureus H3. The experiment in a line: MIC / antibiotic susceptibility.
In assay [2] the test system is Staphylococcus aureus H18. The experiment in a line: MIC / antibiotic susceptibility.
In another assay the test system is Staphylococcus aureus H7. The experiment in a line: MIC / antibiotic susceptibility.
The subject of the next assay is Staphylococcus aureus H9. The assay is described as follows: MIC / antibiotic susceptibility.
Note: key: R: strain resistant to antibiotic concerned; S: strain sensitive to antibiotic concerned; L strain with intermediate resistance to antibiotic concerned.

With `CCC[C@@H]1C[C@@H](C(=O)N[C@@H]([C@H]2O[C@H](SC)[C@H](O)[C@@H](O)[C@H]2O)[C@H](C)Cl)N(C)C1` [Clindamycin], the “Susceptibility of strain to antibiotic” value is given as “S” in the assay on Staphylococcus aureus H4; “S” in the assay on Staphylococcus aureus H1; “R” in assay [1]; “R” in the assay with Staphylococcus aureus H3; “R” in assay [2]; “R” in the assay on Staphylococcus aureus H7. Also, in the assay with Staphylococcus aureus H9, the “Susceptibility of strain to antibiotic” value is recorded as “S”.
